According to paper PMC4703873:
Results are given in words; binding and its absence hold for the method and conditions named. In cells and extracts the contact can be indirect. Some results given as binding are weak or reduced against the parent protein; the word gives no strength.

The chains behind the UniProt entries cited, without tags or fusion partners. Residues count along the entry.
GST-GluN2A(1,049-1,464) (Q00959, residues 1049-1464): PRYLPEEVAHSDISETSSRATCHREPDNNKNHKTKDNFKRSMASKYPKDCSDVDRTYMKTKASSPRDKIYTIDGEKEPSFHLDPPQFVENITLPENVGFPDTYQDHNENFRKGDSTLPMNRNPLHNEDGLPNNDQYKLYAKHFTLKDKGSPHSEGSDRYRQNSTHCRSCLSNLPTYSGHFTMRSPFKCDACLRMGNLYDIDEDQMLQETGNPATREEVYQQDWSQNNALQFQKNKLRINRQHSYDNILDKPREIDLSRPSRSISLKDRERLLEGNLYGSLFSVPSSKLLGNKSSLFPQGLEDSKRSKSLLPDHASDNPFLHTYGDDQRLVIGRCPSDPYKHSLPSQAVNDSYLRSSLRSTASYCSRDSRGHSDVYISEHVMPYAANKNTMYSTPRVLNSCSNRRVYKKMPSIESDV
GST-GluN2A(1,244-1,389) (Q00959, residues 1244-1389): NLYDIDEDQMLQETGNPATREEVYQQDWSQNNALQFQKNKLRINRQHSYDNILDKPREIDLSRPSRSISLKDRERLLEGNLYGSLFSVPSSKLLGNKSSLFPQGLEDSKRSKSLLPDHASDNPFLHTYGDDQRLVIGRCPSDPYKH
GST-GluN2A(1,349-1,461) (Q00959, residues 1349-1461): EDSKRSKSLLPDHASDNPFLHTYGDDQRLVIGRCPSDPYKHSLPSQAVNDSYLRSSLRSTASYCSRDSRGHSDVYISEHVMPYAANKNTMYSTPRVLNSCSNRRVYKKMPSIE
UniProt P47709: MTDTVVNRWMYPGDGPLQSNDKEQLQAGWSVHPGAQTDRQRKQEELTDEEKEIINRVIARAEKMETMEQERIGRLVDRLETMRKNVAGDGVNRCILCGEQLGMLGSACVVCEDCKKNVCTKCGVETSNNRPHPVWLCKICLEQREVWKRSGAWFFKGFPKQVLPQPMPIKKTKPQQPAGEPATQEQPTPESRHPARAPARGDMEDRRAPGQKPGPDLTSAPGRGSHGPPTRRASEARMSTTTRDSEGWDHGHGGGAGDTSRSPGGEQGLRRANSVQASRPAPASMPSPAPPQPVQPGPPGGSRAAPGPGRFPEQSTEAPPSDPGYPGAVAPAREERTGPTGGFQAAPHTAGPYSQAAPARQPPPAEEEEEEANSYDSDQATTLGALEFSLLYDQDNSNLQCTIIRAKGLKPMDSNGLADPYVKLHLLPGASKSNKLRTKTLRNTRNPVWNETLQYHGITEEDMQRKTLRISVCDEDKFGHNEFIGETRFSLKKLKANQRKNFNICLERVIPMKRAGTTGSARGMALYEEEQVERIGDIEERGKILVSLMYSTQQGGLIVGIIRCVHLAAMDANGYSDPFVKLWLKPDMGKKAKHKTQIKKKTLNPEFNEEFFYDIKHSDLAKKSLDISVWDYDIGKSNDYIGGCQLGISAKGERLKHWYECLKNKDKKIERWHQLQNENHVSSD

Legend:
[1] = target: NMDA receptor subunit GluN2A (endogenous, rat hippocampus) (rat (endogenous in rat hippocampus)) (UniProt Q00959); assay: co-IP; 50 ug rat hippocampal P2 crude membrane fraction; RIA buffer (200 mM NaCl, 10 mM EDTA, 10 mM Na2HPO4, 0.5% NP-40, 0.1% SDS); polyclonal anti-GluN2A or monoclonal anti-PSD-95 overnight at 4 C, protein A/G-agarose; western blot
[2] = target: GST-GluN2A(1,244-1,389) (UniProt Q00959); assay: pull-down; GST fusion proteins on glutathione agarose beads incubated 2 h with rat brain homogenate (250 ug, pre-cleared on GST alone) in TBS (10 mM Tris, 150 mM NaCl), room temperature; washed with TBS and 0.1% Triton X-100; western blot for Rph3A; for GST-GluN2A(1,049-1,464) also with 175 ug hippocampal homogenate with or without 20 mM Ca2+ and 1 mM IP3; only the target purified
[3] = target: GST-GluN2A(1,349-1,461) (UniProt Q00959); assay: as above
[4] = target: GST-GluN2A(1,049-1,464) (UniProt Q00959); assay: as above

binding [1]: binds
binding [2]: binds
binding [3]: binds
binding [4]: binds
Substance: Rabphilin 3A (endogenous, rat brain) (from UniProt P47709 1-684)
